Laboratory results reported in publication PMC13107559.
These are yes or no findings as the source states them, for the method shown. In cells and extracts the contact can be indirect. Some binding calls cover weakened binding; strength is not graded here.

Chains of the proteins cited; added tags and fusions are not shown.
UniProt Q91ZW3: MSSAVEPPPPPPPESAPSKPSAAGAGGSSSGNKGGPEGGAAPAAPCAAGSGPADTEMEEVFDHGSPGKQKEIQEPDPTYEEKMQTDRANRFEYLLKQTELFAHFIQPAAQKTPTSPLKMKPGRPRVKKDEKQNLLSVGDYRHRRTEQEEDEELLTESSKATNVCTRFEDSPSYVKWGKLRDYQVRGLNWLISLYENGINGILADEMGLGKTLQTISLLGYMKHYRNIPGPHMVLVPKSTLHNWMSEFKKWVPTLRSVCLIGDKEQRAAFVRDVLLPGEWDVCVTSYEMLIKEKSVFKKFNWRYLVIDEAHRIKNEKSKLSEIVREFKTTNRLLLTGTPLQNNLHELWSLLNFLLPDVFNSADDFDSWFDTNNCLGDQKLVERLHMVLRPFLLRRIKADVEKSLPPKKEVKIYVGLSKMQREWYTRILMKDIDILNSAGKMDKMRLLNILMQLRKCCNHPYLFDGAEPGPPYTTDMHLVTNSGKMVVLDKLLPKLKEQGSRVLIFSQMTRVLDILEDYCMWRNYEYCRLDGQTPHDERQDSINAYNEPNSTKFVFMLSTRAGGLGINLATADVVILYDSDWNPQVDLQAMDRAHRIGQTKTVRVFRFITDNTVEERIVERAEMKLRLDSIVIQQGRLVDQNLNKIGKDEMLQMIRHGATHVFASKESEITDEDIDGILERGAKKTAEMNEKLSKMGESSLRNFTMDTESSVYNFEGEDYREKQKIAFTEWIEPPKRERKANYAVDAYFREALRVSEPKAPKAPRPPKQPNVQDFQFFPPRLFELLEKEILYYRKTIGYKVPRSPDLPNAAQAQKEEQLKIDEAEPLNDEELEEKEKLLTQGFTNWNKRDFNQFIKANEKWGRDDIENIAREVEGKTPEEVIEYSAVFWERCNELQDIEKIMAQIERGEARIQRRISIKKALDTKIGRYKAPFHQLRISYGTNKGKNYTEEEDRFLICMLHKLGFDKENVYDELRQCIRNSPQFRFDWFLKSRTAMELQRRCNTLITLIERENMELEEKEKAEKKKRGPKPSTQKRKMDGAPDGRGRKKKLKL
UniProt Q09XV5: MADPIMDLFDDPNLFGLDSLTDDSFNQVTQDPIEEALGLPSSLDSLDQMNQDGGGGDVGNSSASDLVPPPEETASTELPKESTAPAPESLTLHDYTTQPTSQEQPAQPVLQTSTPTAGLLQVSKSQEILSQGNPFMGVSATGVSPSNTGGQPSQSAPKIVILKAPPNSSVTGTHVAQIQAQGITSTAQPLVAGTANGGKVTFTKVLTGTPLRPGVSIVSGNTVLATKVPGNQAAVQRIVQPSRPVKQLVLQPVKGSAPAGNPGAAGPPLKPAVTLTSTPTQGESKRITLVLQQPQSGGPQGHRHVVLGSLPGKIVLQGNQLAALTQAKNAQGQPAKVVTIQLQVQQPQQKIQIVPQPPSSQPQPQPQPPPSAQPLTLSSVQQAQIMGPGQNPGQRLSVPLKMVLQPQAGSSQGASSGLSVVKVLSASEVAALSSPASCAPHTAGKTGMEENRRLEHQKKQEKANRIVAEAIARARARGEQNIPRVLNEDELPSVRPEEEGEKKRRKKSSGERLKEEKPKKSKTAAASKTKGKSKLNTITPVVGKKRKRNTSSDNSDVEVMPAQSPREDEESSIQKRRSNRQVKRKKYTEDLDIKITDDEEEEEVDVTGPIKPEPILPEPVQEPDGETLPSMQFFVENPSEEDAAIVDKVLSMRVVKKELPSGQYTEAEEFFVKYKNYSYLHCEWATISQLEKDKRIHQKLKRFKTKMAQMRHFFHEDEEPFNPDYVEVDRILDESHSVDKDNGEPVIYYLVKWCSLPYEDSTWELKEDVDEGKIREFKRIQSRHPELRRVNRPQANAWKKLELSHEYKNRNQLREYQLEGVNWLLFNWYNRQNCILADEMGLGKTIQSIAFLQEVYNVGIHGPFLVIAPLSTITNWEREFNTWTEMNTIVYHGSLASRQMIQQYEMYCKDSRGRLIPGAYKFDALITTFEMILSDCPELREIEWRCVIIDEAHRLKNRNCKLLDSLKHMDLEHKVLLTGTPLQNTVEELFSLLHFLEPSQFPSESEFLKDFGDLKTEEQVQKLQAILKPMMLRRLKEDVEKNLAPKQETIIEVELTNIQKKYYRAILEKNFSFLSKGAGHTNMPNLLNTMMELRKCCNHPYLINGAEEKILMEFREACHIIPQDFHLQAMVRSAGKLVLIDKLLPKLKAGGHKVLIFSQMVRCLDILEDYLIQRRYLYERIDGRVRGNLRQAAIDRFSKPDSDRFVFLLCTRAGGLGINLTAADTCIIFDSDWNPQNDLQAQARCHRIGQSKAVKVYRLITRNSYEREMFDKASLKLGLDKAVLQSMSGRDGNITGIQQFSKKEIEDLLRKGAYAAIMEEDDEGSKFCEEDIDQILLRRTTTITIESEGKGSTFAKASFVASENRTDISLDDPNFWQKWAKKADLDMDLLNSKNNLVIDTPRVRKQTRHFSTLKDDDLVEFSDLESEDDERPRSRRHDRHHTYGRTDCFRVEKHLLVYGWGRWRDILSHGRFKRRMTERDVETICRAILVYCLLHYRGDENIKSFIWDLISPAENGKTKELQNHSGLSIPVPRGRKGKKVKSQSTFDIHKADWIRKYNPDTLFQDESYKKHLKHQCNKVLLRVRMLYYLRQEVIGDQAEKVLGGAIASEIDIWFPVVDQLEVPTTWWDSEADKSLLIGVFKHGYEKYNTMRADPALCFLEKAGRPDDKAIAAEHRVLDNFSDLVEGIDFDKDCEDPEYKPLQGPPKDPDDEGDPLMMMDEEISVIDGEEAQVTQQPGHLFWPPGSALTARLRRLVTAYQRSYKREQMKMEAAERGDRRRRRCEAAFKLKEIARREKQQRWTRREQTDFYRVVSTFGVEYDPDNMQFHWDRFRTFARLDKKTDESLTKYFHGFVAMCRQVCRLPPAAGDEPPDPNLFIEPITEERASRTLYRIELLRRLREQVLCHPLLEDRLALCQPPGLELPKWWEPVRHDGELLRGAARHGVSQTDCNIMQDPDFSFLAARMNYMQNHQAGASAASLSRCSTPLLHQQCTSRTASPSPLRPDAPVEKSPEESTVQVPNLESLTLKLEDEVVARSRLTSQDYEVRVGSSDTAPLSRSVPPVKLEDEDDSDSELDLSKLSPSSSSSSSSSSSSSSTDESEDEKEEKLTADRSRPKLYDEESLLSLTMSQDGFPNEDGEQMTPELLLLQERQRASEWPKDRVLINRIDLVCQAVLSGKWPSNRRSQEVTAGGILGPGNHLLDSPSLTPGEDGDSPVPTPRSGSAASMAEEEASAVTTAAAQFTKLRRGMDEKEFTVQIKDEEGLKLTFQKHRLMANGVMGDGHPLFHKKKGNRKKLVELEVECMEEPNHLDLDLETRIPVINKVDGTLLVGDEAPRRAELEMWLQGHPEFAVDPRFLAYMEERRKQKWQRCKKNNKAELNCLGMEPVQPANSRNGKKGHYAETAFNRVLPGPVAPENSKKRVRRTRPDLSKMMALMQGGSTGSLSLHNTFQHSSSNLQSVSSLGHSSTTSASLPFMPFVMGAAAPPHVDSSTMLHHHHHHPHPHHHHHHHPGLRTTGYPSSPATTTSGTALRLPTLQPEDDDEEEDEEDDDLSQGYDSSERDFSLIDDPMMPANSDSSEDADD
UniProt Q3TKT4: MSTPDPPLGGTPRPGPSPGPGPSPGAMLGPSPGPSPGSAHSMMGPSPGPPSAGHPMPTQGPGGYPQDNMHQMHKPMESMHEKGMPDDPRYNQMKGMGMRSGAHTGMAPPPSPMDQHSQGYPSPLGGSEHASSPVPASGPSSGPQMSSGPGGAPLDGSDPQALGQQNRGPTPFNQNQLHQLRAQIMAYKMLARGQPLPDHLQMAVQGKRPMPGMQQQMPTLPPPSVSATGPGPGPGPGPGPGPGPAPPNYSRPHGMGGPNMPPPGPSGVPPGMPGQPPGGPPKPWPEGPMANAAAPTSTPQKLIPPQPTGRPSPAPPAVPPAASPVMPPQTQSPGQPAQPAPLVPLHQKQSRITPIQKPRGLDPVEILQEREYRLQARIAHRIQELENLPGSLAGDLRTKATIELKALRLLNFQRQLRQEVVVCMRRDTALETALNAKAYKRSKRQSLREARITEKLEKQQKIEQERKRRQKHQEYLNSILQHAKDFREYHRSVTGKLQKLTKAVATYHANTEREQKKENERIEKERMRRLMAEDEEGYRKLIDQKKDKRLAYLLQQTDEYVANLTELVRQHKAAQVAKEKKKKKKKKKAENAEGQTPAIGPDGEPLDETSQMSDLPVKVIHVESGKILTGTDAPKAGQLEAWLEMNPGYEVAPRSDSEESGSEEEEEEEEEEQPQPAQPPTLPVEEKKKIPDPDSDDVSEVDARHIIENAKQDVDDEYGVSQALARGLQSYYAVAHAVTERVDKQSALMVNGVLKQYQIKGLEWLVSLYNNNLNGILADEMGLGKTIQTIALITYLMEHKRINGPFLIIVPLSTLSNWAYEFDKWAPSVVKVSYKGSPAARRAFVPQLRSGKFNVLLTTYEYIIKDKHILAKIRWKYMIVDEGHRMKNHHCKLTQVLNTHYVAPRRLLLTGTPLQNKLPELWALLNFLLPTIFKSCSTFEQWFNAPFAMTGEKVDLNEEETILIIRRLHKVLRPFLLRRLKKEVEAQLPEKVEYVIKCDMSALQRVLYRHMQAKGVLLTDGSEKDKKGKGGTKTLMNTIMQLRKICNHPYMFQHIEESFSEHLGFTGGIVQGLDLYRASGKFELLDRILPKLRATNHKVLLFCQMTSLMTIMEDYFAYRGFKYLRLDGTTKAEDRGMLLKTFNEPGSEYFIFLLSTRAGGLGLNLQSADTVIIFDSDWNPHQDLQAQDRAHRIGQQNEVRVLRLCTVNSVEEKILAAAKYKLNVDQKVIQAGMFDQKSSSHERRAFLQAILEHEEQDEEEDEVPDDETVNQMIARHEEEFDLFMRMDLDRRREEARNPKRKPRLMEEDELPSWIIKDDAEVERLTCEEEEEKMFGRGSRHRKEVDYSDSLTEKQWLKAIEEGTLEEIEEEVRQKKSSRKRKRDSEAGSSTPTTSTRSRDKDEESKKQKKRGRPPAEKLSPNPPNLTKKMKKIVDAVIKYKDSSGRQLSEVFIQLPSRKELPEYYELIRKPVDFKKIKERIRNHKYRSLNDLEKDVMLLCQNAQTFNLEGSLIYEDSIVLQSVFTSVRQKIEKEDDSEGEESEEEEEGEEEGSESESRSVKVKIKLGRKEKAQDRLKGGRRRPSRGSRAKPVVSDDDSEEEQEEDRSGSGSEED

Legend:
[1] = target: T1, CCCTC-binding factor (CTCF) (mouse (endogenous in mESCs)) (UniProt Q61164); test: co-IP; co-immunoprecipitation (Fig. S7C); bait, antibodies and cells not told in the text shown
T1 sequence: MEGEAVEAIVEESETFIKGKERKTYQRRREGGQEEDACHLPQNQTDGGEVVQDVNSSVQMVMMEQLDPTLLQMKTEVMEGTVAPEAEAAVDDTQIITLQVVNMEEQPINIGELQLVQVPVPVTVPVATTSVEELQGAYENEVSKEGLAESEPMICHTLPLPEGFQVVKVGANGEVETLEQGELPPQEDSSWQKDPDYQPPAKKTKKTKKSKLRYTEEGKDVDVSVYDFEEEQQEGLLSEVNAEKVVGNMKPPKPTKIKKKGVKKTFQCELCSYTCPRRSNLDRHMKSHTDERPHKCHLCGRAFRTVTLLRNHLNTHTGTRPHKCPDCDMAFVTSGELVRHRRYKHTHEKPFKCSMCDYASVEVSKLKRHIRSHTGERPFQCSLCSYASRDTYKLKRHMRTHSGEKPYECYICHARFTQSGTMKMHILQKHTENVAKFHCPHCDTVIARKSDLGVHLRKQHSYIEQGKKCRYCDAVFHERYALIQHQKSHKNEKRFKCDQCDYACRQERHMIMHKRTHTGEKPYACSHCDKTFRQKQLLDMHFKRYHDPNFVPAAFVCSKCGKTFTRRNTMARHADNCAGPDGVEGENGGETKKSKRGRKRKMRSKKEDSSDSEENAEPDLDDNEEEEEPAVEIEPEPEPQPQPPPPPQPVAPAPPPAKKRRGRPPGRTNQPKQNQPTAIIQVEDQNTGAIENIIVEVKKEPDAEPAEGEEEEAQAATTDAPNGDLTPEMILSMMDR

[2] = target: T1, CCCTC-binding factor (CTCF) (mouse (endogenous in mESCs)); test: co-IP; endogenous biotin-tagged Chd8 mESC lines (Fig. S7E); details not told in the text shown

| Substance | binding [1] | binding [2] |
| --- | --- | --- |
| SMARCA5 (from UniProt Q91ZW3 1-1051) | binds | – |
| CHD4 (from UniProt Q6PDQ2 1-1915) | binds | – |
| CHD8, endogenous biotin-tagged (from UniProt Q09XV5 1-2582) | – | no binding |
| SMARCA4/BRG1 (from UniProt Q3TKT4 1-1613) | binds | – |
